Our source for the binding values is article doi:10.1101/2022.09.14.507933.

Common to all, as to experiment: co-IP
The target in assay [1] is T1, Puf3-Flag (C-terminal Flag tag) (S. cerevisiae) (UniProt Q07807).
T1 sequence: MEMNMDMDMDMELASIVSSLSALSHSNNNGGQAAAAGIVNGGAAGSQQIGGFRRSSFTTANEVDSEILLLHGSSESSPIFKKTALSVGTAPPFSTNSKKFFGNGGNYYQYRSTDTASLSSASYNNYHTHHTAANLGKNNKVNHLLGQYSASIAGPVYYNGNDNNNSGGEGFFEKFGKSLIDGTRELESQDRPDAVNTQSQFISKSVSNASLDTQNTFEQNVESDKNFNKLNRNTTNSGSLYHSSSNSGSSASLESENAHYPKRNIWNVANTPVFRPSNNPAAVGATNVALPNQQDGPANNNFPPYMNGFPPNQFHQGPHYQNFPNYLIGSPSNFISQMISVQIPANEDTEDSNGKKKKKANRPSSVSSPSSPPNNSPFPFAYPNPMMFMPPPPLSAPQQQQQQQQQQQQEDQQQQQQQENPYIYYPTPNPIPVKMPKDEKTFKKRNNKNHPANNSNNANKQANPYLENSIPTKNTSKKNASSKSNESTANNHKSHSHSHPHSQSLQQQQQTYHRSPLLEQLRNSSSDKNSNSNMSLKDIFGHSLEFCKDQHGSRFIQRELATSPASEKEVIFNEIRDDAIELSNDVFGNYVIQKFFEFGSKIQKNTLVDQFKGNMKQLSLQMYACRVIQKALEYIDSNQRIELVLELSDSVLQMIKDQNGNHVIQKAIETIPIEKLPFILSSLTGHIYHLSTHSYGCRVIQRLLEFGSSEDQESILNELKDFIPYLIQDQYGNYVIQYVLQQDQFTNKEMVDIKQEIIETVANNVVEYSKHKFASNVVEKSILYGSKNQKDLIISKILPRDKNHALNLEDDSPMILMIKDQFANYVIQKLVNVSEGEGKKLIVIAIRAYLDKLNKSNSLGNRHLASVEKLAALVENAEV

Assay [2] addresses T2, Pbp1 M8F-Flag (S. cerevisiae) (UniProt P53297).
T2 sequence: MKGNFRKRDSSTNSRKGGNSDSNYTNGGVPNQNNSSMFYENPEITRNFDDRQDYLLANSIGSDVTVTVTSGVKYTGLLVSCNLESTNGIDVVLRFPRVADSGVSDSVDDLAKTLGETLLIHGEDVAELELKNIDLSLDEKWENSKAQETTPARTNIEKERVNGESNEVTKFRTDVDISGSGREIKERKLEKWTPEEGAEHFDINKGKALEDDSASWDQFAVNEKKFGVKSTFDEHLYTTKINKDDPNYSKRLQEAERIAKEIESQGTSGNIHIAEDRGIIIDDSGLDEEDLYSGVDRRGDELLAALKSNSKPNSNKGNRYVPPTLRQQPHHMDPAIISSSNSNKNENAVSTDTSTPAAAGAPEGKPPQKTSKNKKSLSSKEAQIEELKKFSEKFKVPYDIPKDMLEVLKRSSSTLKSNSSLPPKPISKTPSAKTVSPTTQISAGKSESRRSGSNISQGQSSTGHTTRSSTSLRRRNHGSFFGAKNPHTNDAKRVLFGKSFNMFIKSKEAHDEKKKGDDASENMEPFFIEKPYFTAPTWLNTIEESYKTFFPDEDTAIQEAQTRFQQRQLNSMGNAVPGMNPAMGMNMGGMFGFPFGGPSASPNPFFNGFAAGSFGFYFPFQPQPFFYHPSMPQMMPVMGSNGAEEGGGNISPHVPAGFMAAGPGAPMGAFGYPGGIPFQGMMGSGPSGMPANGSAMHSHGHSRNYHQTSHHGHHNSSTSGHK

In assay [3] the target is T3, Pbp1 M8Y-Flag (S. cerevisiae) (UniProt P53297).
T3 sequence: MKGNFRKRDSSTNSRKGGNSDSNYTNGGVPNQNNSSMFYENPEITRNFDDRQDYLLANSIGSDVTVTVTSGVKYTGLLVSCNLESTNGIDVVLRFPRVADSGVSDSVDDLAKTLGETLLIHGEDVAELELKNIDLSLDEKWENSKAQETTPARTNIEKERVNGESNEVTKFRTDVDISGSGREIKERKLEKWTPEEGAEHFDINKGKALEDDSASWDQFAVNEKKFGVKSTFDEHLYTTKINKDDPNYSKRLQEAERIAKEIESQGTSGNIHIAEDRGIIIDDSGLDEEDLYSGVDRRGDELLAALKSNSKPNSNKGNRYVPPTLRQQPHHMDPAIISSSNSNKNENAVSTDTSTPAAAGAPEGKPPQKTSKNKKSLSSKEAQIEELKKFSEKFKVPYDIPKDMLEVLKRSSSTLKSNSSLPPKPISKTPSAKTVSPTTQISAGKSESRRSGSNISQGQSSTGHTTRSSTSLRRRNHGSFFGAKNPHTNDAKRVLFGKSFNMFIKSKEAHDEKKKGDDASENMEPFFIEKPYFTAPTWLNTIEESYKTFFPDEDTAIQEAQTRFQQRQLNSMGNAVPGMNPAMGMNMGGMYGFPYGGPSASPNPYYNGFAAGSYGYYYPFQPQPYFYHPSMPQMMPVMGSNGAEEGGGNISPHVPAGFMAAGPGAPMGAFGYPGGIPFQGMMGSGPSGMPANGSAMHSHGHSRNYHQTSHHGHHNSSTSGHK

The target in assay [4] is T4, Pbp1-FLAG (poly(A)-binding protein - binding protein 1, C-terminal FLAG tag) (S. cerevisiae) (UniProt P53297).
T4 sequence: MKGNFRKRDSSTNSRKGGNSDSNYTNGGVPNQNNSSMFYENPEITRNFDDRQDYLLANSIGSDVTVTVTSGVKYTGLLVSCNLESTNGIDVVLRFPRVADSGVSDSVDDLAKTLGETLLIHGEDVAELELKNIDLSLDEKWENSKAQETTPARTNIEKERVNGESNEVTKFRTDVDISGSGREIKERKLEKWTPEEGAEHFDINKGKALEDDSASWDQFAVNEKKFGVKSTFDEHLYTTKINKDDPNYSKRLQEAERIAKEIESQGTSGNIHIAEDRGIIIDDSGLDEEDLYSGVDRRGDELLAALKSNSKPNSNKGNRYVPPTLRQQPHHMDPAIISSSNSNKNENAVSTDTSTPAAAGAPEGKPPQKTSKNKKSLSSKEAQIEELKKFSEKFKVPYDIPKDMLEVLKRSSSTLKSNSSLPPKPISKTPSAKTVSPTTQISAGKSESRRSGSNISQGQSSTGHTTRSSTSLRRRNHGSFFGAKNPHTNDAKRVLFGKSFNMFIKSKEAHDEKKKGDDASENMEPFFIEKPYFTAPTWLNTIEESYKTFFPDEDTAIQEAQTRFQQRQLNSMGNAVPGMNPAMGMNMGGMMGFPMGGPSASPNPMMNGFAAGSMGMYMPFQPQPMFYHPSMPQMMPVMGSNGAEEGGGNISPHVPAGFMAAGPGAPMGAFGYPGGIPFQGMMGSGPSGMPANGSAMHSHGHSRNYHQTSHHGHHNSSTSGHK

These are yes or no findings as the source states them, for the method shown. Binding seen in cells or lysates may run through a third protein. Some binding calls cover weakened binding; strength is not graded here. Tags and fused reporters may be left off the sequences shown.

B1: Pbp1, epitope-tagged, prey of the reciprocal Flag co-IP with Puf3-Flag (protein, UniProt P53297 1-722)
chain: MKGNFRKRDSSTNSRKGGNSDSNYTNGGVPNQNNSSMFYENPEITRNFDDRQDYLLANSIGSDVTVTVTSGVKYTGLLVSCNLESTNGIDVVLRFPRVADSGVSDSVDDLAKTLGETLLIHGEDVAELELKNIDLSLDEKWENSKAQETTPARTNIEKERVNGESNEVTKFRTDVDISGSGREIKERKLEKWTPEEGAEHFDINKGKALEDDSASWDQFAVNEKKFGVKSTFDEHLYTTKINKDDPNYSKRLQEAERIAKEIESQGTSGNIHIAEDRGIIIDDSGLDEEDLYSGVDRRGDELLAALKSNSKPNSNKGNRYVPPTLRQQPHHMDPAIISSSNSNKNENAVSTDTSTPAAAGAPEGKPPQKTSKNKKSLSSKEAQIEELKKFSEKFKVPYDIPKDMLEVLKRSSSTLKSNSSLPPKPISKTPSAKTVSPTTQISAGKSESRRSGSNISQGQSSTGHTTRSSTSLRRRNHGSFFGAKNPHTNDAKRVLFGKSFNMFIKSKEAHDEKKKGDDASENMEPFFIEKPYFTAPTWLNTIEESYKTFFPDEDTAIQEAQTRFQQRQLNSMGNAVPGMNPAMGMNMGGMMGFPMGGPSASPNPMMNGFAAGSMGMYMPFQPQPMFYHPSMPQMMPVMGSNGAEEGGGNISPHVPAGFMAAGPGAPMGAFGYPGGIPFQGMMGSGPSGMPANGSAMHSHGHSRNYHQTSHHGHHNSSTSGHK
With B1, in assay [1], the binding result is “binds”.

B2: Puf3-HA (C-terminal HA tag) (protein, UniProt Q07807 1-879)
chain: MEMNMDMDMDMELASIVSSLSALSHSNNNGGQAAAAGIVNGGAAGSQQIGGFRRSSFTTANEVDSEILLLHGSSESSPIFKKTALSVGTAPPFSTNSKKFFGNGGNYYQYRSTDTASLSSASYNNYHTHHTAANLGKNNKVNHLLGQYSASIAGPVYYNGNDNNNSGGEGFFEKFGKSLIDGTRELESQDRPDAVNTQSQFISKSVSNASLDTQNTFEQNVESDKNFNKLNRNTTNSGSLYHSSSNSGSSASLESENAHYPKRNIWNVANTPVFRPSNNPAAVGATNVALPNQQDGPANNNFPPYMNGFPPNQFHQGPHYQNFPNYLIGSPSNFISQMISVQIPANEDTEDSNGKKKKKANRPSSVSSPSSPPNNSPFPFAYPNPMMFMPPPPLSAPQQQQQQQQQQQQEDQQQQQQQENPYIYYPTPNPIPVKMPKDEKTFKKRNNKNHPANNSNNANKQANPYLENSIPTKNTSKKNASSKSNESTANNHKSHSHSHPHSQSLQQQQQTYHRSPLLEQLRNSSSDKNSNSNMSLKDIFGHSLEFCKDQHGSRFIQRELATSPASEKEVIFNEIRDDAIELSNDVFGNYVIQKFFEFGSKIQKNTLVDQFKGNMKQLSLQMYACRVIQKALEYIDSNQRIELVLELSDSVLQMIKDQNGNHVIQKAIETIPIEKLPFILSSLTGHIYHLSTHSYGCRVIQRLLEFGSSEDQESILNELKDFIPYLIQDQYGNYVIQYVLQQDQFTNKEMVDIKQEIIETVANNVVEYSKHKFASNVVEKSILYGSKNQKDLIISKILPRDKNHALNLEDDSPMILMIKDQFANYVIQKLVNVSEGEGKKLIVIAIRAYLDKLNKSNSLGNRHLASVEKLAALVENAEV
Turning to B2, the binding entry in assay [2], in assay [3] and in assay [4] was “binds” each time.
